In paper PMC4520715:
These are yes or no findings as the source states them, for the method shown. Binding seen in cells or lysates may run through a third protein. Some binding calls cover weakened binding; strength is not graded here. Where a sequence is shown, tags or fusion partners need not be part of it.

By UniProt entry, the sequences of proteins in these tests, tags left out. Residues count along the entry.
UniProt Q9UMX0: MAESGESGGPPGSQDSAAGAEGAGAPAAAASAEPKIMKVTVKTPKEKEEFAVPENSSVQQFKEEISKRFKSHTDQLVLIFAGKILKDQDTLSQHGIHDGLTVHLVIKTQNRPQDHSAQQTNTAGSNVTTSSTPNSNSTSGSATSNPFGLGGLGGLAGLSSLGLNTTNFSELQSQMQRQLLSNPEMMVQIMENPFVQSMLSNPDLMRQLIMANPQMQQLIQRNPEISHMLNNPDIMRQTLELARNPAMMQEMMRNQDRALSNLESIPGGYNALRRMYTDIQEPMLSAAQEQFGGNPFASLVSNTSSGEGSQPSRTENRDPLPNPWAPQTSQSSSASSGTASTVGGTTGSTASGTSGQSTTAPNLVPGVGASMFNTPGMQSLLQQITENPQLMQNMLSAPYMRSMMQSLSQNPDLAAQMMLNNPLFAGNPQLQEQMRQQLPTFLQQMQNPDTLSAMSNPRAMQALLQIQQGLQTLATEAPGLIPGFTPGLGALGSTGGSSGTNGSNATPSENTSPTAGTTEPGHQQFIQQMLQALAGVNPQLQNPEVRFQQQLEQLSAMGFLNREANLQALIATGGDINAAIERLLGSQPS
UniProt P9WK63, residues 30-182: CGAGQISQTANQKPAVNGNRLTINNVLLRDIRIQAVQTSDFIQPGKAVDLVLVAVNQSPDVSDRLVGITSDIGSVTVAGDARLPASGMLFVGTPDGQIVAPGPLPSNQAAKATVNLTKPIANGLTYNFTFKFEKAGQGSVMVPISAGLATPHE

B1: Rv2911-V5 (protein, UniProt I6Y204 23-291)
chain: AWADADVQPAGSVPIPDGPAQTWIVADLDSGQVLAGRDQNVAHPPASTIKVLLALVALDELDLNSTVVADVADTQAECNCVGVKPGRSYTARQLLDGLLLVSGNDAANTLAHMLGGQDVTVAKMNAKAATLGATSTHATTPSGLDGPGGSGASTAHDLVVIFRAAMANPVFAQITAEPSAMFPSDNGEQLIVNQDELLQRYPGAIGGKTGYTNAARKTFVGAAARGGRRLVIAMMYGLVKEGGPTYWDQAATLFDWGFALNPQASVGSL

Biological target: myc-UBQLN1 (human) (human) (UniProt Q9UMX0)
Assay: co-IP

Molecule | binding
Rv3584-V5 (from UniProt P9WK63 30-182) | binds
B1 | binds
